Source: PubChem BioAssay AID1259308 (NCATS, 2017)

Assay: 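Genes whose loss raises luciferase production in HEK293 cells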 (primary screen)
System: human HEK293 embryonic kidney cells stably expressing firefly luciferase (HEK-CMV-Luc2-Hygro)
Reagents: single siRNA against human genes, 0.8 pmol siRNA per well
Timing: 72 h
Read-out: 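Reporter luminescence and viable-cell signal on separate replicate plates, given as percent of non-targeting control and median/MAD z-scores, plus per-cell luciferase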
Scale: total luciferase, z-score: higher = more reporter protein produced
Call rule: 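Active when the median/MAD z-score for overall luciferase is greater than 3; a gene was taken forward for validation with new siRNAs if at least two of its three siRNAs passed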
Calls: active = raised luciferase; inactive = no rise
The whole screen tested about 59,000 reagents; this is an unselected part. About 1,510 of all reagents (2.6%) were called active. 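Calls use total luciferase alone and ignore viability, so some active siRNAs may act by altering cell number.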 Further read-outs or replicates are left out here.

With KRTAP21-2 [SID160725062], how do the results read?
total luciferase, z-score: -0.452; Call: inactive

For KRTAP21-2 [SID160725064], how do the results read?
total luciferase, z-score: -1.66; Call: inactive

For KRTAP21-2 [SID160725065], what does the deposit list?
total luciferase, z-score: -0.656; Call: inactive

For SLC25A41 [SID160731003], how do the results read?
total luciferase, z-score: -0.97; Call: inactive

With SLC25A41 [SID160763334], what was measured?
total luciferase, z-score: 0.394; Call: inactive

With SLC25A41 [SID160763335], what was measured?
total luciferase, z-score: 3.56; Call: active

With CIB4 [SID160756931], what was measured?
total luciferase, z-score: -2.58; Call: inactive

For CIB4 [SID160756932], what was measured?
total luciferase, z-score: 0.87; Call: inactive

With CIB4 [SID160756933], what was measured?
total luciferase, z-score: -0.926; Call: inactive

With METTL23 [SID160756185], how do the results read?
total luciferase, z-score: -0.71; Call: inactive

How did the screen score METTL23 [SID160756186]?
total luciferase, z-score: 1.06; Call: inactive

With METTL23 [SID160756187], what does the deposit list?
total luciferase, z-score: 0.759; Call: inactive

For NDUFC1 [SID160723944], what was measured?
total luciferase, z-score: -0.911; Call: inactive

What did the screen give for NDUFC1 [SID160777888]?
total luciferase, z-score: 1.64; Call: inactive

For NDUFC1 [SID160777889], what does the deposit list?
total luciferase, z-score: -0.202; Call: inactive

What did the screen give for SCARF2 [SID160753911]?
total luciferase, z-score: 0.662; Call: inactive

What is on record for SCARF2 [SID160753912]?
total luciferase, z-score: 0.224; Call: inactive

For SCARF2 [SID160753913], what does the deposit list?
total luciferase, z-score: 1.33; Call: inactive

For EXOSC7 [SID160730815], what was measured?
total luciferase, z-score: 0.656; Call: inactive

How did the screen score EXOSC7 [SID160735103]?
total luciferase, z-score: -0.775; Call: inactive

For EXOSC7 [SID160735109], how do the results read?
total luciferase, z-score: -0.355; Call: inactive

Records listed so far whose target name begins with M or m (3):
METTL23 [SID160756185]: total luciferase, z-score = -0.71; Call = inactive
METTL23 [SID160756186]: total luciferase, z-score = 1.06; Call = inactive
METTL23 [SID160756187]: total luciferase, z-score = 0.759; Call = inactive
